No constants are given. Whether binding was seen depends on the method and setting. Binding seen in cells or lysates may run through a third protein. Some results given as binding are weak or reduced against the parent protein; the word gives no strength.

Amino acid sequences for entries named in this document (tags omitted). A change or cut given only in a name is not applied to a line headed by its entry. Chains listed by the source or under a name are the forms on record and can include a tag or linker.
UniProt Q61687: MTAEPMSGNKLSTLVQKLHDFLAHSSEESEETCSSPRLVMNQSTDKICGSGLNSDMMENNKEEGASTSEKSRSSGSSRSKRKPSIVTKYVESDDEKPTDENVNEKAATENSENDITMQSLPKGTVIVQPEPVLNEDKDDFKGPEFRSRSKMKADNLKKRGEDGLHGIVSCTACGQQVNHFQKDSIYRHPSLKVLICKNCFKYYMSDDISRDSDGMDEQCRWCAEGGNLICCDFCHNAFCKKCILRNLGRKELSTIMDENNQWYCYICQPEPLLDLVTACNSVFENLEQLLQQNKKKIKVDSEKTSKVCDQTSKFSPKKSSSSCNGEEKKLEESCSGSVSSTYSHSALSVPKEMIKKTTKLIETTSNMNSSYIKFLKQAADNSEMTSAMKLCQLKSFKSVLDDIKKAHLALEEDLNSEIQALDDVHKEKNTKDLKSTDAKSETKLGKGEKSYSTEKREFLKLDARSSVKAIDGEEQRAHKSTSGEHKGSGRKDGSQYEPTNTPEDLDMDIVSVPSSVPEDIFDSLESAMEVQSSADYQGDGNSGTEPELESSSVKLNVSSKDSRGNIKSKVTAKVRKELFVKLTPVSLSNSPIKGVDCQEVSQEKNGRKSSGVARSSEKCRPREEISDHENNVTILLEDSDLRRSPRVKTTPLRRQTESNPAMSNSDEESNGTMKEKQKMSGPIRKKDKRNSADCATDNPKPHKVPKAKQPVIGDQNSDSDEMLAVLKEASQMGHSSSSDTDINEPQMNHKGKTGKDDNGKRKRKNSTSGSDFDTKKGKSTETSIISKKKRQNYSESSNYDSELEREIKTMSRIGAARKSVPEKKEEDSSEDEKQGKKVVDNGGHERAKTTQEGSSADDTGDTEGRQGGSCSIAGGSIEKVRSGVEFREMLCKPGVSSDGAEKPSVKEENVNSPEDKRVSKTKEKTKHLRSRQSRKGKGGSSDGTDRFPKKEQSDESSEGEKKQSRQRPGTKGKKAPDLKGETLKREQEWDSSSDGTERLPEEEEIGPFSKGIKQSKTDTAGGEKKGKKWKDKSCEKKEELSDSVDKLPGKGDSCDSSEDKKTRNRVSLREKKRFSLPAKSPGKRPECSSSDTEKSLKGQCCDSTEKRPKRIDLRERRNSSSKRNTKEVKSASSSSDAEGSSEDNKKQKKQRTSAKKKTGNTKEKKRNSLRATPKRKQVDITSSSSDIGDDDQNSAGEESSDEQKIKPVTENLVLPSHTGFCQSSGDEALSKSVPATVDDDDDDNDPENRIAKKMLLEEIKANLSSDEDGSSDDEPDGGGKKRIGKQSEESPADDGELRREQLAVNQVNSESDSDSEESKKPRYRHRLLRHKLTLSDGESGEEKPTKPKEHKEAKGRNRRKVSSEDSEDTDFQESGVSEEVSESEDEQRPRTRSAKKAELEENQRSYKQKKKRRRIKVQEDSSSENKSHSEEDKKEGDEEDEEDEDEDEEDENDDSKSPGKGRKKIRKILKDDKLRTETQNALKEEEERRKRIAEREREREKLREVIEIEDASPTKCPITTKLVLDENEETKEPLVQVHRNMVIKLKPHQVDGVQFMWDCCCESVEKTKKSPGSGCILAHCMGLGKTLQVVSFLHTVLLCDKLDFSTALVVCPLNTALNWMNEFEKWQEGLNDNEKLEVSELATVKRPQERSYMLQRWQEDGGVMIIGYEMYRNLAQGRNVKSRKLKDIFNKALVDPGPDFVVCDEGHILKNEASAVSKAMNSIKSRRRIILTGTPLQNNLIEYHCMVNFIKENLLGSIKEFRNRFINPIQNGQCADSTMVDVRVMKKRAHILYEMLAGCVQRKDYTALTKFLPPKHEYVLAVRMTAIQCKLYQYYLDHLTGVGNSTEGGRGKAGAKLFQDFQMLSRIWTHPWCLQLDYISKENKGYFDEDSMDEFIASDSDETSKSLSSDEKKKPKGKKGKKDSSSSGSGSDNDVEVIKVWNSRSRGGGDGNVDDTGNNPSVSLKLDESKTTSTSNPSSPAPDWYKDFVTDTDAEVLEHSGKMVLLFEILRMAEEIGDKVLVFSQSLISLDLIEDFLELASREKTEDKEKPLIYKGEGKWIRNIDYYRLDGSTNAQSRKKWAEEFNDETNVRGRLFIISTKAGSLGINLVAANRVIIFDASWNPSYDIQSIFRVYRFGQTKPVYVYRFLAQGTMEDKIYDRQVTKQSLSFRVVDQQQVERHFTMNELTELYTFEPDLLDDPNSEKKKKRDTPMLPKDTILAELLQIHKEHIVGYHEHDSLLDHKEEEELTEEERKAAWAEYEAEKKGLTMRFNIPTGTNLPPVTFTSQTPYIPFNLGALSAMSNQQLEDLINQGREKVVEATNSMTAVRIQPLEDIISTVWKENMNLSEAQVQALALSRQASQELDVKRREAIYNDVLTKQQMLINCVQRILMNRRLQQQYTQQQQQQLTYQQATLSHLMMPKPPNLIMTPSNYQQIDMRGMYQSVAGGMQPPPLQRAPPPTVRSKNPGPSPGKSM
HA-tagged ATRX (wild-type) (P46100, form named): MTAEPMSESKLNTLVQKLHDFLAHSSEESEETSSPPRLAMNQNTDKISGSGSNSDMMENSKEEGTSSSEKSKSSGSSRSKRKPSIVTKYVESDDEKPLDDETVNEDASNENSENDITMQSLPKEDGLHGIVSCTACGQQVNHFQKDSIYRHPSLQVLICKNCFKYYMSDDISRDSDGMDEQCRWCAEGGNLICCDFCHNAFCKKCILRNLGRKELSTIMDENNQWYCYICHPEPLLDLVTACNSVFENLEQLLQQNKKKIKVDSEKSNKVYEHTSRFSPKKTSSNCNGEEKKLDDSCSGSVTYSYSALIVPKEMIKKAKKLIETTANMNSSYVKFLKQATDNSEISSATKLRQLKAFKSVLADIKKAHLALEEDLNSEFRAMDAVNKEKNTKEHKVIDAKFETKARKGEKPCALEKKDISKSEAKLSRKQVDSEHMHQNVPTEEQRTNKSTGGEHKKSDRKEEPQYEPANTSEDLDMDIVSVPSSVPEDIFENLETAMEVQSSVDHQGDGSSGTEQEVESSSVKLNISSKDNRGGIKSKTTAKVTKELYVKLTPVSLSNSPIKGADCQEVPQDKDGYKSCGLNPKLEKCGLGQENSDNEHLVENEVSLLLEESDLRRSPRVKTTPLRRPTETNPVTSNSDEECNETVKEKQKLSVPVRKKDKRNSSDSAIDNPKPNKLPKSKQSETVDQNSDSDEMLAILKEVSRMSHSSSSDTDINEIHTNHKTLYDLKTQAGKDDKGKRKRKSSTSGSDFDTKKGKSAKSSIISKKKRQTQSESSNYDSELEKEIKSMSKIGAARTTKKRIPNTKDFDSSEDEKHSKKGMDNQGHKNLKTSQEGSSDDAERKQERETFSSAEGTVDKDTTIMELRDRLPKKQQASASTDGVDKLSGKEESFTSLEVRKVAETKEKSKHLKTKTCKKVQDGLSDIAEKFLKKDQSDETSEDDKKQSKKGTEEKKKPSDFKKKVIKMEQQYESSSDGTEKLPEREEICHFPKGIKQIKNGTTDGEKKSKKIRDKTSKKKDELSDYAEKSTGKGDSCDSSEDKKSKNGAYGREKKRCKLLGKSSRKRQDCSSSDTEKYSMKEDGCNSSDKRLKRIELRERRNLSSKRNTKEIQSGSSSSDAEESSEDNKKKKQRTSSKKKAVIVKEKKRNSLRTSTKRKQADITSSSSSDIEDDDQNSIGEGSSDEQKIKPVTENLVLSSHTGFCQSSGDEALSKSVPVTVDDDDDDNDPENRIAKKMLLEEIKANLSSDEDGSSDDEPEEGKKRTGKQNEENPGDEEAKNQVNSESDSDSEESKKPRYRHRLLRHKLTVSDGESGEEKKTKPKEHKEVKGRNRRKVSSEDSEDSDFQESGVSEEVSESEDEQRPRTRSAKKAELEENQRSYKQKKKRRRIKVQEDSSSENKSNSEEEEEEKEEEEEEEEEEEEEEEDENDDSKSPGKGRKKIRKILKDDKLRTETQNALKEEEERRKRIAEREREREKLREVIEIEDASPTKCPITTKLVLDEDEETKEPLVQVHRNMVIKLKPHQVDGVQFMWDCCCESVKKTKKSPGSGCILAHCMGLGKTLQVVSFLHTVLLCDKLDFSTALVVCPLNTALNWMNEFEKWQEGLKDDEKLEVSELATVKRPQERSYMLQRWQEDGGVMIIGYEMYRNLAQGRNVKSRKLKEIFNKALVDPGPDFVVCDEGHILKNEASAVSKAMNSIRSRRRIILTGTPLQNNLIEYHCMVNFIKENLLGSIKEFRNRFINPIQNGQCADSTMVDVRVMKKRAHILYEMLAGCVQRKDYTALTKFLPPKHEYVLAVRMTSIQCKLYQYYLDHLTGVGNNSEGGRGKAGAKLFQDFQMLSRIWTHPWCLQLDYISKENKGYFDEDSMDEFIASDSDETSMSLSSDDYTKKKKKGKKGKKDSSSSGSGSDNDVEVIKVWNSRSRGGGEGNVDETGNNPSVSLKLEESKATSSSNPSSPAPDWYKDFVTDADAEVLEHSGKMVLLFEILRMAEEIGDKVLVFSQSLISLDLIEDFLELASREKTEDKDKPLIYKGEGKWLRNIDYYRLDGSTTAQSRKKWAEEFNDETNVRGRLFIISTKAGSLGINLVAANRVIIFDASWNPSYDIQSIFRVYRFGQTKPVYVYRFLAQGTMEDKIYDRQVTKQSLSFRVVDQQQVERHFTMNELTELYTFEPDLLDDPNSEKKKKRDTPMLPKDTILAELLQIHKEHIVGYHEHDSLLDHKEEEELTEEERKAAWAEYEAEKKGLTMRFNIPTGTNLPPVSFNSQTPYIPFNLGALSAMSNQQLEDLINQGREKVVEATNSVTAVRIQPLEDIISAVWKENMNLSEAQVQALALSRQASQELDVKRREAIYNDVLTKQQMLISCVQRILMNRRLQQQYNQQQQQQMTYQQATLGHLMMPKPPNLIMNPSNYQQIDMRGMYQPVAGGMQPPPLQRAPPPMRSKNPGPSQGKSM
UniProt O35613: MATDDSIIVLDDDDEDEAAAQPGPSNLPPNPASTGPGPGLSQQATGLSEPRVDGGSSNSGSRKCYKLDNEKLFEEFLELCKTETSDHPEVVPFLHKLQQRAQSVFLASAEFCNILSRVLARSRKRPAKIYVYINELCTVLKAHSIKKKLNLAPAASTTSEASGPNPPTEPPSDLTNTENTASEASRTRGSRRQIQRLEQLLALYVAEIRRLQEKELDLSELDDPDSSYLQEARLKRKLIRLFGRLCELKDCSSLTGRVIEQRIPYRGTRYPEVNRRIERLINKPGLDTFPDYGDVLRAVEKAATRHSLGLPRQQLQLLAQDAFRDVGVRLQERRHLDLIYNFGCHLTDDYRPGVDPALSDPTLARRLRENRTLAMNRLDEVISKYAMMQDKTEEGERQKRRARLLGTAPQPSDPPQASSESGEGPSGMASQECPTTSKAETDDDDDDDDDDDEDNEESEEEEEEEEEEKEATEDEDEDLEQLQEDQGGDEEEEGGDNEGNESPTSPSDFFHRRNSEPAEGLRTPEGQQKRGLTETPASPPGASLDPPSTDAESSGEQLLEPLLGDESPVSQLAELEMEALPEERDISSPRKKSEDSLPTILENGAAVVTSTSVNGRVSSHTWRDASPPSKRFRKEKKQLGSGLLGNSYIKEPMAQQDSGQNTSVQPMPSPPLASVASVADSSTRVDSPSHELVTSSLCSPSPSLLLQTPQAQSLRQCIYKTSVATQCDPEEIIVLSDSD
UniProt P97310: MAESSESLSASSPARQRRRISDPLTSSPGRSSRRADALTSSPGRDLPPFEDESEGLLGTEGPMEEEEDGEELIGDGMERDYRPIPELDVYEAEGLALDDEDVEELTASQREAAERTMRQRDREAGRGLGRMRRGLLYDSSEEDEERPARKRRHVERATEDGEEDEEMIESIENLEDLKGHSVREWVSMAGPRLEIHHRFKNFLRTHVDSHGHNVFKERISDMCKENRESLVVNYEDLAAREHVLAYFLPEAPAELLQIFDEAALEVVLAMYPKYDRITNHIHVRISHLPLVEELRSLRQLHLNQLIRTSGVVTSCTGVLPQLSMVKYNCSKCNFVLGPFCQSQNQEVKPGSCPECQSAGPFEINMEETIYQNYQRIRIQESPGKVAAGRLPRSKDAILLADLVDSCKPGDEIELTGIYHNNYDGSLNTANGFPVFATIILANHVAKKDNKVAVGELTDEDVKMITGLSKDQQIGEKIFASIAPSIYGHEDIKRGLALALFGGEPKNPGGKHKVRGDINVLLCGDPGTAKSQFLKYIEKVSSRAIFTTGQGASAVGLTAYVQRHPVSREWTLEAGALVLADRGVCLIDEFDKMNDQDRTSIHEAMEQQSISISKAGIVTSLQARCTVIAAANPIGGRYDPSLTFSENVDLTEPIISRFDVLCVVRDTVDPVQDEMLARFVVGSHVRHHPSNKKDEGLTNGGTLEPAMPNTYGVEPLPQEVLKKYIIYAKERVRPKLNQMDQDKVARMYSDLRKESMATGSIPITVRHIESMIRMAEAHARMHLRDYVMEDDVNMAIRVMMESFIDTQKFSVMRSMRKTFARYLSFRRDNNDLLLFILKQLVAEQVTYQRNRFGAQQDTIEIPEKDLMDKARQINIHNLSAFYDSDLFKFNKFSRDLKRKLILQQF

For experiment [1], the target named is ATRX (mouse (endogenous in ESCs)) (UniProt Q61687). Description: co-IP; 0.5 mg ESC nuclear extract, 2 μg antibody on Dynabeads Protein A or G, 4 °C, 2 h, washes with 150 mM KCl buffer, immunoblot; wild-type, DAXX KO, HIRA KO, H3.3 KO, H3.3 KO addback and ATRX KO addback ESCs; lysates also treated with ethidium bromide or RNase A. (In western blotting, separated proteins are transferred to a membrane and probed.)

For experiment [2], the target named is HA-tagged ATRX (wild-type) (human) (UniProt P46100). The description is as above.
Experiment [3] addresses GFP-tagged ATRX (mouse (endogenous in ESCs)) (UniProt Q61687). The experiment in a line: co-IP; immunoprecipitation from cell lysates of single ATRX-GFP ESC clones.
The target in experiment [4] is ATRX (mouse (endogenous in ESCs)) (UniProt Q61687). Description: proximity ligation; fixed and permeabilised mouse ESCs, ATRX and MCM antibodies, Duolink; wild-type, DAXX KO and ATRX KO addback ESCs; ATRX KO ESCs as control.
Experiment [5] concerns the target HA-tagged ATRX K1562R (human) (UniProt P46100). Description: co-IP; 0.5 mg ESC nuclear extract, 2 μg antibody on Dynabeads Protein A or G, 4 °C, 2 h, washes with 150 mM KCl buffer, immunoblot; wild-type, DAXX KO, HIRA KO, H3.3 KO, H3.3 KO addback and ATRX KO addback ESCs; lysates also treated with ethidium bromide or RNase A.
Experiment [6] deals with HIRA (mouse (endogenous in ESCs)) (UniProt Q61666). Described as above.
Experiment [7] concerns the target HA-tagged ATRX L1238A (human) (UniProt P46100). The description is as above.
Experiment [8] has as its target HA-tagged ATRX K1562R (human) (UniProt P46100). The experiment in a line: proximity ligation; fixed and permeabilised mouse ESCs, ATRX and MCM antibodies, Duolink; wild-type, DAXX KO and ATRX KO addback ESCs; ATRX KO ESCs as control.
The target of experiment [9] is HA-tagged ATRX L1238A (human) (UniProt P46100). The description is as above.

Take DAXX (from UniProt O35613 1-739): the binding result in [1], in experiment [2] and in [3] was “binds” in each case.
For Mcm7 (from UniProt Q61881 1-719), the binding result in experiment [1] was “binds weakly”.
As to MCM2 (from UniProt P97310 1-904), the values for the binding result in experiment [1] and in experiment [4] were “binds weakly” and “binds”, respectively.

B1: MCM3 (protein, UniProt P25206 1-812)
chain: MAGTVVLDDVELREAQRDYLDFLDDEEDQGIYQNKVRELISDNQYRLIVSVNDLRRKNEKRANRLLNNAFEELVAFQRALKDFVASIDATYAKQYEEFYIGLEGSFGSKHVSPRTLTSCFLSCVVCVEGIVTKCSLVRPKVVRSVHYCPATKKTIERRYSDLTTLVAFPSSSVYPTKDEENNPLETEYGLSVYKDHQTITIQEMPEKAPAGQLPRSVDVILDDDLVDKVKPGDRIQVVGTYRCLPGKKGCYTSGTFRTVLIACNVKQMSKDIQPAFSADDIAKIKKFSKTRSKDVFEQLARSLAPSIHGHDYVKKAILCLLLGGVERELENGSHIRGDINILLIGDPSVAKSQLLRYVLCTAPRAIPTTGRGSSGVGLTAAVTTDQETGERRLEAGAMVLADRGVVCIDEFDKMSDMDRTAIHEVMEQGRVTIAKAGIHARLNARCSVLAAANPVYGRYDQYKTPMENIGLQDSLLSRFDLLFIMLDQMDPEQDREISDHVLRMHQYRAPGEQDGDALPLGSSVDILATDDPDFTQDDQQDTRIYEKHDSLLHGTKKKKEKMVSAAFMKKYIHVAKIIKPTLTQESAAYIAEEYSRLRSQDSMSSDTARTSPVTARTLETLIRLATAHAKARMSKTVDLQDAEEAVELVQYAYFKKVLEKEKKRKKASEDESDLEDEEEKSQEDTEQKRKRRKTHAKDGESYDPYDFSEAETQMPQVHTPKTDDSQEKTDDSQETQDSQKVELSEPRLKAFKAALLEVFQEAHEQSVGMLHLTESINRNREEPFSSEEIQACLSRMQDDNQVMVSEGIVFLI
For B1, the binding result in experiment [4] is recorded as “binds”.

B2: MCM4 (protein, UniProt P49717 1-862)
chain: MSSPASTPSRRSSRRGRVTPTQSLRSEESRSSPNRRRRGEDSSTGELLPMPTSPGADLQSPPAQNALFSSPPQMHSLAIPLDFDVSSPLTYGTPSSRVEGTPRSGVRGTPVRQRPDLGSARKGLQVDLQSDGAAAEDIVPSEQSLGQKLVIWGTDVNVATCKENFQRFLQCFTDPLAKEEENVGIDITQPLYMQQLGEINITGEPFLNVNCEHIKSFSKNLYRQLISYPQEVIPTFDMAVNEIFFDRYPDSILEHQIQVRPFNALKTKSMRNLNPEDIDQLITISGMVIRTSQLIPEMQEAFFQCQVCAHTTRVEIDRGRIAEPCSCVHCHTTHSMALIHNRSFFSDKQMIKLQESPEDMPAGQTPHTIVLFAHNDLVDKVQPGDRVNVTGIYRAVPIRVNPRVSNVKSVYKTHIDVIHYRKTDAKRLHGLDEEAEQKLFSEKRVKLLKELSRKPDIYERLASALAPSIYEHEDIKKGILLQLFGGTRKDFSHTGRGKFRAEINILLCGDPGTSKSQLLQYVYNLVPRGQYTSGKGSSAVGLTAYVMKDPETRQLVLQTGALVLSDNGICCIDEFDKMNESTRSVLHEVMEQQTLSIAKAGIICQLNARTSVLAAANPIESQWNPKKTTIENIQLPHTLLSRFDLIFLMLDPQDEAYDRRLAHHLVSLYYQSEEQVEEEFLDMAVLKDYIAYAHSTIMPRLSEEASQALIEAYVNMRKIGSSRGMVSAYPRQLESLIRLAEAHAKVRFSNKVEAIDVEEAKRLHREALKQSATDPRTGIVDISILTTGMSATSRKRKEELAEALRKLILSKGKTPALKYQQLFEDIRGQSDTAITKDMFEEALRALADDDFLTVTGKTVRLL
On to B2, for which the binding entry is listed as “binds weakly” in experiment [1] and “binds” in experiment [4].

B3: Mcm6 (protein, UniProt P97311 1-821)
chain: MDLAAAAEPGAGSQHPEVRDEVAEKCQKLFLDFLEEFQGSDGEIKYLQFAEELIRPERNTLVVSFADLEQFNQQLSTTIQEEFYRVYPYLCRALKTFVKDRKEIPFAKDFYVAFQDLPTRHKIRELTSSRIGLLTRISGQVVRTHPVHPELVSGTFLCLDCQTVIKDVEQQFKYTQPNICRNPVCANRKRFLLDTNKSRFVDFQKVRIQETQAELPRGSIPRSLEVILRAEAVESAQAGDRCDFTGALIVVPDVSKLSTPGARAETNSRVSGADGYETEGIRGLRALGVRDLSYRLVFLACHVAPTNPRFGGKELRDEEQTAESIKNQMTVKEWEKVFEMSQDKNLYHNLCTSLFPTIHGNDEVKRGVLLMLFGGVPKTTGEGTSLRGDINVCIVGDPSTAKSQFLKHVDEFSPRAVYTSGKASSAAGLTAAVVRDEESHEFVIEAGALMLADNGVCCIDEFDKMDMRDQVAIHEAMEQQTISITKAGVKATLNARTSILAAANPVSGHYDRSKSLKQNINLSAPIMSRFDLFFILVDECNEVTDYAIARRIVDLHSRIEESIDRVYSLDDIRRYLLFARQFKPKISKESEDFIVEQYKRLRQRDGSGVTKSSWRITVRQLESMIRLSESMARMHCCDEVQPKHVKEAFRLLNKSIIRVETPDVNLDQEEEIQMETDEGQGGVNGHADSPAPVNRFNGSSEDASQETVSKPSLRLGFAEYCRISNLIVLHLRKMEEEEDESALKRSELVNWYLKEIESEIDSEEELINKKTIIEKVVHRLTHYDHVLIELTQAGLKGSSEGSESYEEDPYLVVNPNYLLED
B3: the binding entry in experiment [1] is “binds weakly”; in experiment [2], “binds”; in experiment [5], “binds”; in experiment [6], “no binding”; in experiment [7], “binds”; in [4], “binds”. For the same molecule, the binding entry in experiment [8] and in experiment [9] was “binds” each time.
